Experimental data: PubChem BioAssay AID1259314 (Drosophila RNAi Screening Center, 2017)
The deposit covers about 3,100 reagents; shown is a random part of them. 289 of all reagents (9.3%) count as active. 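Active includes both higher and lower ATP than plate average; check the z-score sign for direction.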 Entries without a mark were called inactive. Not given: the amount of reagent.

Test: 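Modifiers of manganese chloride toxicity in fly cells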 (primary screen)
System: Drosophila S2R+ cells
Reagent: long dsRNA against Drosophila genes
Time to read-out: 5 days (4 days knock-down, then 1 day metal exposure)
Challenge: manganese chloride added to 15 mM for 24 hours
Measured: 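Luciferase ATP signal used as a proxy for viable cell number, reported as one averaged z-score per dsRNA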
Reading the numbers: mean ATP z-score: higher = more ATP than the plate average, more viable cells under manganese
Active means: 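a mean ATP z-score past 1.5 in either direction is called active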
Meaning of the calls: active = strong ATP change, up or down; inactive = no strong ATP change

CG3397 (GeneID 41454) [DRSC15487]
- mean ATP z-score: 3.15 (active)

CG3397 (GeneID 41454) [DRSC39547]
- mean ATP z-score: -0.0429

Nmdar1 (GeneID 40665) [DRSC12071]
- mean ATP z-score: 0.356

Nmdar1 (GeneID 40665) [DRSC12356]
- mean ATP z-score: -0.674

Nmdar1 (GeneID 40665) [DRSC24657]
- mean ATP z-score: -0.844

mnd (GeneID 39625) [DRSC11370]
- mean ATP z-score: -1.35

mnd (GeneID 39625) [DRSC39608]
- mean ATP z-score: -1.19

CG17821 (GeneID 37159) [DRSC06696]
- mean ATP z-score: -0.52

CG17821 (GeneID 37159) [DRSC39871]
- mean ATP z-score: 2.84 (active)

nac (GeneID 40981) [DRSC16520]
- mean ATP z-score: -0.825

ZnT33D (GeneID 326167) [DRSC02591]
- mean ATP z-score: 0.626

ZnT33D (GeneID 326167) [DRSC39537]
- mean ATP z-score: -0.845

CG5885 (GeneID 34314) [DRSC02910]
- mean ATP z-score: -1.17

CG5885 (GeneID 34314) [DRSC28761]
- mean ATP z-score: 2.18 (active)

Gr59e (GeneID 37725) [DRSC04276]
- mean ATP z-score: 0.269

Gr59e (GeneID 37725) [DRSC39732]
- mean ATP z-score: -1.42

Ir85a (GeneID 41052) [DRSC14382]
- mean ATP z-score: -1.32

Ir85a (GeneID 41052) [DRSC29077]
- mean ATP z-score: -0.963

CG1161 (GeneID 40638) [DRSC24956]
- mean ATP z-score: 1.06

No new results follow: 2 of the entries above.
ZnT33D (GeneID 326167) [DRSC39537]
- mean ATP z-score: -0.845

CG5885 (GeneID 34314) [DRSC02910]
- mean ATP z-score: -1.17
